Measurements reported in publication PMC12431657, “Discovery and mechanistic insights of dibenzoylmethane as a broad spectrum inhibitor of coronavirus” (PLOS Pathogens, 2025).
Structures can show the parent of a compound that is named as a salt. Where two headings read alike, the source gives them in different places. Among all 3,300 compounds or so, about 60 (2%) showed an effect of 50% or more. Some of the results follow.

System: HCoV-OC43
Set-up: species or system RD; HTS, protection from HCoV-OC43 induced cell death, luminescent cell viability (CellCounting-Lite 2.0), inhibition rate
Details: 24 h post infection, 1 h compound pre-incubation, 10 µM, inhibitor

Row | SMILES | OC43 Inhibition rate (OC43 Inhibition rate, 24 h) | OC43 Inhibition rate
1 | COc1ccc([C@H]2OC[C@H]3[C@@H]2CO[C@@H]3c2ccc(OC)c(OC)c2)cc1OC [Pinoresinol dimethyl ether] | 1.1% | 
2 | O=c1ccc2ccc(O)c(O)c2o1 [Daphnetin] |  | -1.8%
3 | C=C[C@H]1CN2CC[C@]3(C(=O)Nc4ccccc43)[C@@H]2C[C@@H]1/C(=C\OC)C(=O)OC [Corynoxeine] |  | -0.3%
4 | NCCCCCCCC(=O)O [8-Aminooctanoic acid] |  | -7.3%
5 | C=C1C(=O)O[C@@H]2/C=C(\C)[C@@H](OC(C)=O)C/C=C(\COC(C)=O)C[C@@H](OC(=O)/C(C)=C/CO)[C@@H]12 [Eupalinolide A] | 4.1% | 
6 | OC[C@H]1O[C@@](CO)(O[C@H]2O[C@H](CO[C@@H]3O[C@H](CO)[C@@H](O)[C@H](O)[C@H]3O)[C@@H](O)[C@H](O)[C@H]2O)[C@@H](O)[C@@H]1O [Gentianose] |  | 0.1%
7 | C[C@]1(O)C[C@@H](O)[C@@H]2C=CO[C@@H](O[C@@H]3O[C@H](CO)[C@@H](O)[C@H](O)[C@H]3O)[C@@H]21 [Ajugol] |  | -0.3%
8 | O=C(O)Cc1cc(O)ccc1O [Homogentisic acid] |  | -1.2%
9 | N[C@@H](CS)C(=O)O [L-Cysteine (hydrochloride)] | 0% | 
10 | Nc1nc2c(ncn2[C@@H]2O[C@H](COP(=O)(O)OP(=O)(O)OP(=O)(O)O)[C@@H](O)[C@H]2O)c(=O)[nH]1 [Guanosine 5'-triphosphate (trisodium salt)] |  | -0.5%
11 | O=C(O)c1cc(=O)[nH]c(=O)[nH]1 [Orotic acid] | 0.8% | 
12 | N[C@H](CS)C(=O)O [D-Cysteine] |  | 0.2%
13 | Cn1c(N)nc2c(ncn2[C@@H]2O[C@H](CO)[C@@H](O)[C@H]2O)c1=O [1-Methylguanosine] |  | 0.9%
14 | COC(=O)[C@]1(O)C[C@@H](O)[C@@H](O)[C@H](OC(=O)/C=C/c2ccc(O)c(O)c2)C1 [3-O-Caffeoylquinic acid methyl ester] |  | -0.4%
15 | C[C@@H](O)CC(=O)O [(R)-3-Hydroxybutanoic acid] | -0.8% | 
16 | CC(=O)c1ccc(C)cc1 [4'-Methylacetophenone] |  | -0.5%
17 | CC(C)c1ccc2c(c1O)CC[C@H]1C3=C(CC[C@]21C)C(=O)OC3 [Triptophenolide] |  | -0.9%
18 | O=c1cc(-c2ccc(O)cc2)oc2c([C@@H]3O[C@H](CO)[C@@H](O)[C@H](O)[C@H]3O)c(O)c([C@@H]3OC[C@@H](O)[C@H](O)[C@H]3O)c(O)c12 [Vicenin-1] |  | -1.7%
19 | CC1(C)CC[C@]2(C(=O)O)CC[C@]3(C)C(=CC[C@@H]4[C@@]5(C)C[C@@H](O)[C@H](O)[C@@](C)(CO)[C@@H]5[C@H](O)C[C@]43C)[C@@H]2C1 [Terminolic acid] |  | -0.1%
20 | O=C(O)/C=C/C=C/C(=O)O [trans-trans-Muconic acid] |  | -1.3%
21 | COc1cc2c(c(OC)c1OC)-c1c(cc3c(c1OC)OCO3)[C@H](OC(=O)c1ccccc1)[C@@](C)(O)[C@@H](C)C2 [Gomisin G] |  | 3%

Sorted by molar mass (low to high): part of the list above.
Row | SMILES | OC43 Inhibition rate (OC43 Inhibition rate, 24 h) | OC43 Inhibition rate
8 | O=C(O)Cc1cc(O)ccc1O [Homogentisic acid] |  | -1.2%
14 | COC(=O)[C@]1(O)C[C@@H](O)[C@@H](O)[C@H](OC(=O)/C=C/c2ccc(O)c(O)c2)C1 [3-O-Caffeoylquinic acid methyl ester] |  | -0.4%
3 | C=C[C@H]1CN2CC[C@]3(C(=O)Nc4ccccc43)[C@@H]2C[C@@H]1/C(=C\OC)C(=O)OC [Corynoxeine] |  | -0.3%

(next part)

Row | SMILES | OC43 Inhibition rate (OC43 Inhibition rate, 24 h) | OC43 Inhibition rate
22 | C[C@H]1[C@H](C)CC[C@]2(C(=O)O)CC[C@]3(C)C(=CC[C@@H]4[C@@]5(C)C[C@@H](O)[C@H](O)[C@@](C)(CO)[C@@H]5CC[C@]43C)[C@H]12 [Asiatic acid] |  | -2.6%
23 | CC1(C)CC[C@]2(CO)CC[C@]3(C)C(=CC[C@@H]4[C@@]5(C)CC[C@H](O)C(C)(C)[C@@H]5CC[C@]43C)[C@@H]2C1 [Erythrodiol] |  | -2.8%
24 | C[C@H](CC[C@@H](O[C@@H]1O[C@H](CO)[C@@H](O)[C@H](O)[C@H]1O)C(C)(C)O)[C@H]1CC[C@@]2(C)[C@@H]3CC=C4[C@@H](CC[C@H](O)C4(C)C)[C@]3(C)[C@H](O)C[C@]12C [Mogroside I A1] |  | -0.2%
25 | CCCCCCCCCCCCCCCCCCCCCCCC(=O)O [Lignoceric acid] |  | 3.8%
26 | O=C(/C=C/c1ccc(O)c(O)c1)O[C@@H](C(=O)O)[C@@H](OC(=O)/C=C/c1ccc(O)c(O)c1)C(=O)O [Chicoric acid] | 1.8% | 
27 | CC(C)(C)CC(C)(C)c1ccc(O)c(Cc2ccc(Cl)cc2Cl)c1 [Clofoctol] |  | -0.9%
28 | COc1cc([C@H]2OC[C@@H]3[C@@H]2CO[C@H]3c2cc(OC)c(O[C@@H]3O[C@H](CO)[C@@H](O)[C@H](O)[C@H]3O)c(OC)c2)cc(OC)c1O[C@@H]1O[C@H](CO)[C@@H](O)[C@H](O)[C@H]1O [Eleutheroside E] |  | -0.2%
29 | O=c1c(O)cc([C@H]2Oc3cc(O)cc(O)c3C[C@H]2O)cc2c([C@H]3Oc4cc(O)cc(O)c4C[C@H]3O)cc(O)c(O)c12 [Theaflavin] |  | -2.4%
30 | N[C@@H](Cc1ccc(O)cc1)C(=O)O [L-Tyrosine] |  | -0.1%
31 | C[C@@H]1O[C@@H](O[C@H]2[C@H](O[C@H]3CC[C@]4(C)[C@H]5CC=C6[C@@H]7CC(C)(C)CC[C@]7(C(=O)O[C@@H]7O[C@H](CO[C@@H]8O[C@H](CO)[C@@H](O[C@@H]9O[C@@H](C)[C@H](O)[C@@H](O)[C@H]9O)[C@H](O)[C@H]8O)[C@@H](O)[C@H](O)[C@H]7O)CC[C@@]6(C)[C@]5(C)CC[C@H]4C3(C)C)OC[C@H](O)[C@@H]2O)[C@H](O)[C@H](O)[C@H]1O [Hederasaponin B] |  | 1.9%
32 | CC1C(=O)CCC1=O [2-Methylcyclopentane-1,3-dione] |  | 1.4%
33 | COc1ccc(-c2oc3c(CCC(C)(C)O)c(O[C@@H]4O[C@H](CO)[C@@H](O)[C@H](O)[C@H]4O)cc(O)c3c(=O)c2O)cc1 [Maohuoside A] |  | 0.3%
34 | COC(=O)[C@H]1[C@H]2C[C@@H]3c4[nH]c5cc(OC)ccc5c4CCN3C[C@H]2C[C@@H](OC(=O)c2cc(OC)c(OC)c(OC)c2)[C@@H]1OC [Reserpine] | 22.9% | 
35 | COc1cc(C(C)=O)ccc1O [Apocynin] |  | 0.3%
36 | CC(=O)O[C@H]1C[C@H]2C(=O)O[C@H](c3ccoc3)C[C@@]2(C)[C@@H]2C[C@@H]3C[C@@H](C(=O)O3)[C@@H]12 [8-Epidiosbulbin E acetate] |  | -0.7%
37 | O=C(/C=C/c1ccc(O)c(O)c1)O[C@@H]1[C@H](O)C[C@@](O)(C(=O)O)C[C@H]1OC(=O)/C=C/c1ccc(O)c(O)c1 [4,5-Dicaffeoylquinic acid] |  | -0.7%
38 | CC1=CC[C@@H](C(C)(C)O)CC1 [α-Terpineol] | -0.5% | 
39 | C[C@H](O)[C@H](O)c1cnc2nc(N)[nH]c(=O)c2n1 [6-Biopterin] |  | 6.1%
40 | OC[C@H]1O[C@@H](O[C@H]2[C@H](O)[C@@H](O)[C@H](O)O[C@@H]2CO)[C@H](O)[C@@H](O)[C@H]1O [Lactose] |  | 0.1%
41 | CCOC(=O)c1c(C)cc(O)cc1O [Ethyl Orsellinate] |  | -0.1%
42 | c1ccc2c(c1)[nH]c1cnccc12 [Norharmane] |  | 20.7%

Row | SMILES | OC43 Inhibition rate (OC43 Inhibition rate, 24 h) | OC43 Inhibition rate
43 | C=C[C@H]1CN2CC[C@H]1C[C@H]2[C@H](O)c1ccnc2ccc(OC)cc12 [Quinine (hydrochloride dihydrate)] | 5% | 
44 | C[N+](C)(C)[O-] [Trimethylamine N-oxide] | -1% | 
45 | O=c1ccc2ccccc2o1 [Coumarin] |  | 6.5%
46 | CC1=C(C/C=C(\C)CCCC(C)CCCC(C)CCCC(C)C)C(=O)c2ccccc2C1=O (centres unmarked) [Vitamin K] |  | -0.3%
47 | NC(=O)c1ccc[n+]([O-])c1 [Nicotinamide N-oxide] |  | -3.9%
48 | O=C(O)C[C@@H](O)C(=O)O [D-(+)-Malic acid] |  | 0.4%
49 | COc1ccc(-c2coc3cc(O)ccc3c2=O)cc1O [Calycosin] |  | -0.6%
50 | O=c1[nH]cnc2c1ncn2[C@@H]1O[C@H](CO)[C@@H](O)[C@H]1O [Inosine] |  | 0.1%
51 | Cc1cccc(O)c1O [3-Methylcatechol] |  | -0.2%
52 | CCCCC(CC)CCC(=O)O (centres unmarked) [4-Ethyloctanoic acid] |  | -0.1%
53 | CC(/C=C/C=C(\C)C(=O)O)=C\C=C\C=C(C)\C=C\C=C(/C)C(=O)O [Transcrocetinate disodium] | 2.1% | 
54 | Oc1cc(O)c2c(c1)O[C@@H](c1cc(O)c(O)c(O)c1)[C@H](O)C2 [(-)-Gallocatechin] |  | -0.6%
55 | OCc1cn[nH]c1 [4-Hydroxymethylpyrazole] |  | 0.4%
56 | CC(C)=CCc1c(O)cc(O)c2c(=O)c(-c3ccc(O)cc3)coc12 [Lupiwighteone] |  | 63.3%
57 | C[N+](C)(C)[C@@H](Cc1c[nH]c(=S)[nH]1)C(=O)[O-] [Ergothioneine] |  | 1.1%
58 | C=C(C)[C@@H](CC=C(C)C)C[C@@]12C[C@@H](CC=C(C)C)C(C)(C)[C@@](CC=C(C)C)(C(=O)C(C(=O)c3ccc(O)c(O)c3)=C1O)C2=O [Garcinol] |  | -2.4%
59 | COc1ccc(C[C@@H]2c3cc(Oc4cc(C[C@@H]5c6cc(OC)c(OC)cc6CCN5C)ccc4O)c(OC)cc3CCN2C)cc1 [Neferine] |  | 17.4%
60 | Nc1ccn([C@@H]2O[C@H](CO)[C@@H](O)[C@@H]2O)c(=O)n1 [Cytarabine] |  | -1%
61 | COc1c2ccoc2c(OC[C@@H](O)C(C)(C)O)c2oc(=O)ccc12 [Byakangelicin] |  | 4.1%
62 | CC1(C)[C@H]2CC[C@]1(C)C(=O)C2 [Camphor] |  | 7.2%
